# Test results as given in the supplement of paper PMC11348887.
# Structures can show the parent of a compound that is named as a salt. This is one part of the list. Small differences around the control level are noise.
# Columns and labels:
# Conditions in all cases: 5 µM; treatment: days 7-14 after plating, readout day 21
# [1] = system: hPSC-derived cortical neurons (WA09); assay: nucleus area z-score vs screen plate; higher = larger nuclei (more mature)
# [2] = system: hPSC-derived cortical neurons (WA09); assay: total neurite length per nucleus (MAP2) z-score; higher = more neurite growth
# [3] = system: hPSC-derived cortical neurons (WA09); assay: nucleus roundness z-score vs screen plate; higher = rounder nuclei (more mature)
# [4] = system: hPSC-derived cortical neurons (WA09); assay: KCl-induced FOS+/EGR-1+ double-positive nuclei fraction z-score (KCl minus unstimulated); higher = stronger activity-induced IEG response
Compound,nucleus area z-score [1],total neurite length per nucleus (z-score) [2],nucleus roundness z-score [3],KCl-induced FOS+/EGR-1+ double-positive nuclei fraction z-score [4]
O=C(O)CCc1ccc(NCc2cccc(Oc3ccccc3)c2)cc1,0.502,0.58,0.394,1.06
CNC[C@H](O)c1cccc(O)c1 [Phenylephrine HCl],0.676,-1.59,-1.88,-0.397
Cc1ccc(NCCCc2ccccc2)c(N)c1,-0.949,0.169,2.22,0.572
O=C(Nc1ccccc1Br)N[C@@H]1CCN(c2ccc(C(F)(F)F)cn2)C1,-0.178,0.208,0.893,0.515
CNC(=O)c1cc(COc2nnc(Nc3ccc(Cl)cc3)c3ccoc23)ccn1 [Telatinib],-0.253,-0.832,-1.49,-0.0056
CCN1CC(CCN2CCOCC2)C(c2ccccc2)(c2ccccc2)C1=O (stereo not drawn) [Doxapram HCl],0.517,0.542,0.648,1.05
CCCS(=O)(=O)Nc1ccc(F)c(C(=O)c2c[nH]c3ncc(Cl)cc23)c1F,1.04,1.49,0.978,1.89
C[C@H]1COc2c(N3CCN(C)CC3)c(F)cc3c(=O)c(C(=O)O)cn1c23 [Levofloxacin],0.596,0.444,-0.971,-0.139
CCOc1nc2cccc(C(=O)OC(C)OC(=O)OC3CCCCC3)c2n1Cc1ccc(-c2ccccc2-c2nn[nH]n2)cc1 (stereo not drawn) [Candesartan Cilexetil],1.76,-1.23,-1.53,0.662
CN1CCN(CCCN2c3ccccc3Sc3ccc(Cl)cc32)CC1 [Prochlorperazine dimaleate salt],-12.5,-5.07,0.607,-0.634
CC(C)(c1ccc(OCC(O)CO)cc1)c1ccc(OCC(O)CCl)cc1 (stereo not drawn),0.265,0.319,-0.243,0.989
CC(C)(C)C(=O)C(Oc1ccc(Cl)cc1)n1ccnc1 (stereo not drawn) [Climbazole],-0.00668,1.43,0.531,0.417
Nc1nc(F)nc2c1ncn2[C@@H]1O[C@H](CO)[C@@H](O)[C@@H]1O [Fludarabine],0.0317,2.37,-0.75,0.335
CN(C)Cc1ccc(S(=O)(=O)n2ccc(/C=C/C(=O)NO)c2)cc1 [Resminostat],-0.866,0.146,0.628,0.172
COCCCN1CCC(NC(=O)c2cc(Cl)c(N)c3c2OCC3)CC1 [Prucalopride Succinat],0.783,-0.598,-0.953,-1.3
O=C1CCc2cc(OCCCCc3nnnn3C3CCCCC3)ccc2N1 [Cilostazol],0.887,-0.593,-0.435,1.45
O=c1c(O)c(-c2ccc(O)c(O)c2)oc2cc(O)cc(O)c12 [Quercetin Dihydrate],0.148,0.529,1.04,0.906
Cc1cccc(Oc2cnc(=O)[nH]c2)c1,-0.766,0.948,0.281,0.792
Oc1c2ccccc2c2c3c(cccc13)N=N2,-1.08,1.91,-0.545,-2.57
COC(=O)c1ccc2c(c1)nc(NC(=O)c1ccccc1)n2CCCc1ccccc1,-0.239,0.334,0.332,2.48
Clc1cccc(Cl)c1NC1=NCCN1 [Clonidine HCl],1.5,1.13,1.02,4.43
Cc1cc(C(C)Nc2ccccc2)c2nc(N3CCOCC3)cc(=O)n2c1 (stereo not drawn),2.04,1.31,1.07,0.495
c1nc2c(NC3CCCCC3)nc(Nc3ccc(N4CCOCC4)cc3)nc2[nH]1 [Reversine],0.516,0.401,-1.58,-0.685
CC(C)CC(N)=O [Isovaleramide],1.18,-1.18,-0.476,-0.447

# Complete entries from above.
# O=C(Nc1ccccc1Br)N[C@@H]1CCN(c2ccc(C(F)(F)F)cn2)C1 as listed: nucleus area z-score [1]: -0.178; total neurite length per nucleus (z-score) [2]: 0.208; nucleus roundness z-score [3]: 0.893; KCl-induced FOS+/EGR-1+ double-positive nuclei fraction z-score [4]: 0.515
# Cc1ccc(NCCCc2ccccc2)c(N)c1 as listed: nucleus area z-score [1]: -0.949; total neurite length per nucleus (z-score) [2]: 0.169; nucleus roundness z-score [3]: 2.22; KCl-induced FOS+/EGR-1+ double-positive nuclei fraction z-score [4]: 0.572

# Continued:

Compound,nucleus area z-score [1],total neurite length per nucleus (z-score) [2],nucleus roundness z-score [3],KCl-induced FOS+/EGR-1+ double-positive nuclei fraction z-score [4]
CNCCc1ccccn1 [Betahistine 2HCl],-0.505,1.49,0.634,1.85
N[C@@H]1CONC1=O [D-Cycloserine],-0.242,-0.827,-0.0793,-0.988
NC[C@H]1O[C@H](O[C@H]2[C@H](O)[C@@H](O[C@H]3O[C@H](CO)[C@@H](O)[C@H](N)[C@H]3O)[C@H](N)C[C@@H]2N)[C@H](O)[C@@H](O)[C@@H]1O [Kanamycin sulfate],-0.213,0.764,0.167,0.112
NS(=O)(=O)c1ccc(C(=O)O)cc1 [Carzenide],-0.0672,0.549,1.09,0.0555
C=CC(=O)N1CCC(Oc2cc3c(Nc4ccc(Cl)c(Cl)c4F)ncnc3cc2OC)CC1 [Poziotinib (HM781-36B)],0.703,-0.319,-0.705,-0.775
NC[C@@H]1O[C@H](O[C@H]2[C@@H](O)[C@H](O[C@@H]3[C@@H](O)[C@H](N)C[C@H](N)[C@H]3O[C@H]3O[C@H](CO)[C@@H](O)[C@H](O)[C@H]3N)O[C@@H]2CO)[C@H](N)[C@@H](O)[C@@H]1O [Paromomycin Sulfate],0.943,-0.684,-1.08,1.39
CN(C(=O)CNC(=O)/C=C/c1cccc(Cl)c1)C1CCS(=O)(=O)CC1,-0.304,-0.0171,-1.04,0.664
O=C1O[C@H](CO)[C@@H](O)[C@H](O)[C@H]1O [Gluconolactone],0.288,1.74,0.655,0.153
O=C(Nc1ccccc1)OCC(CN1CCCCC1)OC(=O)Nc1ccccc1 (stereo not drawn) [Diperodon HCl],-0.559,-0.913,-0.0582,0.166
OC(Cn1cncn1)(Cn1cncn1)c1ccc(F)cc1F [Fluconazole],0.515,0.237,-0.447,0.414
CCCCCCCCCCCCCCCC(=O)OC[C@H](O)[C@H]1OC(=O)C(O)=C1O [L-Ascorbyl 6-palmitate],-0.117,-0.326,-0.808,-0.888
O=c1cc[nH]c(=O)[nH]1 [Uracil],0.194,0.889,0.914,1.21
Nc1nc(NCCc2ccc(O)cc2)nc2nc(-c3ccco3)nn12,-0.0445,0.846,0.906,0.589
O=C(CCCN1CC=C(n2c(=O)[nH]c3ccccc32)CC1)c1ccc(F)cc1 [Droperidol],-0.209,0.598,0.412,0.293
C[C@@H](Oc1cc(-c2cnn(C3CCNCC3)c2)cnc1N)c1c(Cl)ccc(F)c1Cl,-0.563,0.239,-0.564,-1.01
CC1=C(C(=O)OC(C)C)C(c2cccc([N+](=O)[O-])c2)C(C(=O)OC2CN(C(c3ccccc3)c3ccccc3)C2)=C(N)N1 (stereo not drawn) [Azelnidipine],-7.73,-2.52,-0.0945,-0.139
COc1cc2/c(=N/c3ccc(Br)cc3F)nc[nH]c2cc1OCC1CCN(C)CC1 [Vandetanib (ZD6474)],0.0782,0.927,0.246,0.16
COc1ccc(O)cc1 [Mequinol],-0.0196,-0.118,0.0394,-0.731
O=C(O)c1cc(=O)c2c(OCC(O)COc3cccc4oc(C(=O)O)cc(=O)c34)cccc2o1 [Disodium Cromoglycate],-0.516,0.351,0.0193,2.34
O=C(c1ccccc1)c1ccc2n1CCC2C(=O)O (stereo not drawn) [Ketorolac],0.287,1.11,0.485,0.5
C[S+]([O-])c1ccc(-c2nc(-c3ccc(F)cc3)c(-c3ccncc3)[nH]2)cc1 (stereo not drawn),-0.0249,-0.47,-1.33,0.152
Cc1ccnc2c1NC(=O)c1cccnc1N2C1CC1 [Nevirapine],0.74,0.796,1.4,1.98
O=C(Nc1cc(C(F)(F)F)cc(C(F)(F)F)c1)c1cc(Cl)ccc1O,0.59,-0.369,-0.878,0.471
